Reference: PubChem BioAssay AID2662 (National Center for Advancing Translational Sciences (NCATS), 2010)
Among all 290,000 compounds or so, about 110 (0.038%) were called active. The inconclusive results got no clear call from the source; some entries with a clear call stand among them for comparison. Calls come from the whole dose curve; as a rule, active = well fitted inhibition curve with a large enough effect in the polarisation, with a control signal flat (not every such curve was filed as active); inconclusive = small, poorly fitted or top-dose-only effect, or effect the other way, or a change in a side signal; inactive = no such curve, though single readings can be large or run the other way; the % refers to the polarisation. Potencies beside an inconclusive call are fits to weak or partial responses and may not hold up. A note “side channel” means that the fit belongs to a control or component signal, not to the main read-out.
Potency is the fitted concentration of half-maximal effect.

Amino acid sequences for entries named in this document (tags omitted).
UniProt Q03164, whole entry, looked up: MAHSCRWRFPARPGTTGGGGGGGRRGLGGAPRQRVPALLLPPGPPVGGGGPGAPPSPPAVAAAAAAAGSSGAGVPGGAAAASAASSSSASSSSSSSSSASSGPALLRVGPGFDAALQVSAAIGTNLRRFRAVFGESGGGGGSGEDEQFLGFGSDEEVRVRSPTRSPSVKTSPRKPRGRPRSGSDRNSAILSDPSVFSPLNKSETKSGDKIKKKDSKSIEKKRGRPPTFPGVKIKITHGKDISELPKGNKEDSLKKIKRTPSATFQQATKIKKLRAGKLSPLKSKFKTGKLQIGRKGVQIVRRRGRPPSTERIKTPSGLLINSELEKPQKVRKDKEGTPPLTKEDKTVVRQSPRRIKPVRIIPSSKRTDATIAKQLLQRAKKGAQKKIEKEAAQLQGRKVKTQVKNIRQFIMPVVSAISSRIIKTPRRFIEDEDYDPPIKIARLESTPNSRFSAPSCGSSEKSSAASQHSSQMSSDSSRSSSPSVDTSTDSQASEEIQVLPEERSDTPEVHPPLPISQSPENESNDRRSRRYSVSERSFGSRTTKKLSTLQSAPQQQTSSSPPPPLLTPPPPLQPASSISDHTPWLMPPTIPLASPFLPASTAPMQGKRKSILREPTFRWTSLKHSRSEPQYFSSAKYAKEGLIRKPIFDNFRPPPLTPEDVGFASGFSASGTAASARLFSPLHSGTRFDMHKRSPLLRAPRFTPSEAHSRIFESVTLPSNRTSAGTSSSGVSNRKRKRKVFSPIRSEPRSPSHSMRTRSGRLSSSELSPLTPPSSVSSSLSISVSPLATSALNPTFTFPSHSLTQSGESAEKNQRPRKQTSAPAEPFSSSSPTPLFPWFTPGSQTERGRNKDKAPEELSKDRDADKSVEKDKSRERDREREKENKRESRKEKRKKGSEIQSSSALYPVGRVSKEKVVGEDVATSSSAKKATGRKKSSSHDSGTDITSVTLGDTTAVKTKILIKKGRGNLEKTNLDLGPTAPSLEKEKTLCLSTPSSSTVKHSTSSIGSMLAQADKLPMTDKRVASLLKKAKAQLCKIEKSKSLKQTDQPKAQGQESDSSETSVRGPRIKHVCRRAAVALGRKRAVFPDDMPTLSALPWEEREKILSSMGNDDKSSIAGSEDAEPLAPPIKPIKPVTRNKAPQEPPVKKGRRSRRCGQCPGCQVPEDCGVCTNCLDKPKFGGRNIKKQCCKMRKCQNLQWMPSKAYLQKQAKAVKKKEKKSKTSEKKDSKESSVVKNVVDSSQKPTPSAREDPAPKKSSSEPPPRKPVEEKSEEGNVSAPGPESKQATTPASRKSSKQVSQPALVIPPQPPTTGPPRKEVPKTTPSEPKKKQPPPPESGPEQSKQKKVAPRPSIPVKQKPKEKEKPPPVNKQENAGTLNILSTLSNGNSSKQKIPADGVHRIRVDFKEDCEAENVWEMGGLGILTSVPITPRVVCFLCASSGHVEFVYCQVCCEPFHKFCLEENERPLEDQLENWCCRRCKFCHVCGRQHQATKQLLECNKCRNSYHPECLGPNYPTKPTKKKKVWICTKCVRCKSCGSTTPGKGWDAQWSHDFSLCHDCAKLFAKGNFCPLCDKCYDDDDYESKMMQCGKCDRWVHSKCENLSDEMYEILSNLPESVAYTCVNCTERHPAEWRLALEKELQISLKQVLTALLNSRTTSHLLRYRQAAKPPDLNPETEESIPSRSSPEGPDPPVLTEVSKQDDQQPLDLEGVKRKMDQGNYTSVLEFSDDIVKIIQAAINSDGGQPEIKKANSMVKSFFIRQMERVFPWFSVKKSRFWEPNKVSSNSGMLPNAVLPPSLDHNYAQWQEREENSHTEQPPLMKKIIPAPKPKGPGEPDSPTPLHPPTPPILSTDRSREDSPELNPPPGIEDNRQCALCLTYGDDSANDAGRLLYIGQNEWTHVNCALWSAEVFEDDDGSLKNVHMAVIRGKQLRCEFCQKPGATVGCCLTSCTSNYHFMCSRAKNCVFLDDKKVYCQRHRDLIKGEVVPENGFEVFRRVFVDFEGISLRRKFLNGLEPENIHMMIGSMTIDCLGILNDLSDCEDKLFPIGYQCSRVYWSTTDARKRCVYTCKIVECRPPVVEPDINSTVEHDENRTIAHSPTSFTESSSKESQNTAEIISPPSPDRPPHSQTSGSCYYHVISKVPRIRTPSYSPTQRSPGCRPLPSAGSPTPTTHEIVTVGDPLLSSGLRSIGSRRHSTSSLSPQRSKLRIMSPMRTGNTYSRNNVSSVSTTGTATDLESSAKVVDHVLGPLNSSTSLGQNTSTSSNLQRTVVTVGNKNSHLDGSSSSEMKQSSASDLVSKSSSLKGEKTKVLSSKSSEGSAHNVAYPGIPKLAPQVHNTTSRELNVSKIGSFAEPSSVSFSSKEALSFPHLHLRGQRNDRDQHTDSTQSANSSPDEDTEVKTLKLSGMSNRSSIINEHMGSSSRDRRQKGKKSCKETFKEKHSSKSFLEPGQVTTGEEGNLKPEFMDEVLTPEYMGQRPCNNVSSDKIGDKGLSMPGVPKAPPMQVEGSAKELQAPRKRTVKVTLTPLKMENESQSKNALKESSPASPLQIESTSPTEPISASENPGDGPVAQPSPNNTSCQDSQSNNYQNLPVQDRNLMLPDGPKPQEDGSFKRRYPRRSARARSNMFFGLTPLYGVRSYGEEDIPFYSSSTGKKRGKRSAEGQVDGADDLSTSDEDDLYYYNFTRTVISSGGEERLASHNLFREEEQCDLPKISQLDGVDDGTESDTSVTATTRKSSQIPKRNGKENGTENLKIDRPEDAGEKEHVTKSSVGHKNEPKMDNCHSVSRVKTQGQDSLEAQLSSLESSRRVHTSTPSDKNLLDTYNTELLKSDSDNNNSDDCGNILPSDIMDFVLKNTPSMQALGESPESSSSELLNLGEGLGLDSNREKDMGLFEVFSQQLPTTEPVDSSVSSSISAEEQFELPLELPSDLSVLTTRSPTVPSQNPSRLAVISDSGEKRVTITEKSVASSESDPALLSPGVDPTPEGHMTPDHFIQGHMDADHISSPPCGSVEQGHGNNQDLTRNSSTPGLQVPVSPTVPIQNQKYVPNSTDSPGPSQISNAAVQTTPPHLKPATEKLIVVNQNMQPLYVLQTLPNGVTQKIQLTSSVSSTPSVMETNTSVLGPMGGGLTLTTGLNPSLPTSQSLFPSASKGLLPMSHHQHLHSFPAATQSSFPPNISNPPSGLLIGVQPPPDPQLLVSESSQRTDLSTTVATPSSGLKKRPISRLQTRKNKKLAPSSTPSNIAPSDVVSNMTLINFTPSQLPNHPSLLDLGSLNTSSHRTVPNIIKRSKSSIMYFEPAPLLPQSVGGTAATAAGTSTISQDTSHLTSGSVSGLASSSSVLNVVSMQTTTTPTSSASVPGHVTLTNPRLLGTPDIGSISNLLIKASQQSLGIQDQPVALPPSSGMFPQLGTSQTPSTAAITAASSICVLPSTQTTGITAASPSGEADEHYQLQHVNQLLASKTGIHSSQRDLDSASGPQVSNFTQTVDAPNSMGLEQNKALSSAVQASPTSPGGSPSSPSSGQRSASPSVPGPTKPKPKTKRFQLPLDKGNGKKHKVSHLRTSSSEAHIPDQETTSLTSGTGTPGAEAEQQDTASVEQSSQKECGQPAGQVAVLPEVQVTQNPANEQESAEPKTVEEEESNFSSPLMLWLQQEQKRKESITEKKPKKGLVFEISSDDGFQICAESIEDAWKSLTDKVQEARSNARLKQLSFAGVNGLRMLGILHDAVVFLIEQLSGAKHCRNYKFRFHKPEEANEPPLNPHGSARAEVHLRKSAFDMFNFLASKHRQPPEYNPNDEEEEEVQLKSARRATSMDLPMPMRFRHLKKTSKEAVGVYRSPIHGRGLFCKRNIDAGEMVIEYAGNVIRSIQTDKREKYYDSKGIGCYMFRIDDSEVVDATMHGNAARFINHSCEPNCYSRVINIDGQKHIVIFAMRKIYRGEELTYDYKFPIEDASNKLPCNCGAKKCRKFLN

The compounds below were run against Histone-lysine N-methyltransferase 2A (Homo sapiens) (UniProt Q03164) (assay: qHTS Fluorescence Polarization Assay for Inhibitors of MLL CXXC domain - DNA interaction). Details: MLL-CXXC / FITC-HOXA9 DNA fluorescence polarization; activity change, negative = inhibition: at 115 µM (top of the series).
Summary of the method: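 Fluorescence polarization: 7 uM MLL-CXXC (stock) preincubated 5 min with compounds, then 50 nM fluorescein-HOX-A9 DNA (stock) added; 30 min ambient. Buffer 50 mM Tris-HCl pH 7.5, 50 mM NaCl, 1 mM DTT, 0.05% BSA.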
With `COc1ccc2nc(NC(=O)C3CCCN(S(=O)(=O)c4cccs4)C3)sc2c1` (centres undefined) the Potency was “inactive”. `O=c1c(C/C=C/c2ccccc2)c(O)ccn1CCc1c[nH]c2ccccc12` was tested, and the Potency was inconclusive: 70.8 µM [fluorescent, side channel, single point]. In the case of `CC(/C=C1\NC(=S)NC1=O)=C\c1ccccc1`, the Potency is reported as active: 44.7 µM. `CCCCCCCCCCCCCCCC[N+](C)(C)CC` was tested, and the Potency was inconclusive: 89.1 µM [quencher, side channel, partial curve, poor fit]. For `COCCNC(=O)/C(C#N)=C/c1cccs1`, the Potency was “inactive”. `O=C(Nc1ccc(-c2nnn(CC(=O)N3CCN(C(=O)c4ccco4)CC3)n2)cc1)c1ccccc1F` was tested, and the Potency was inconclusive: 63.1 µM [fluorescent, side channel, single point]. For `C/C(=N/NC(=O)CNC(=O)c1cccnc1)c1cccc([N+](=O)[O-])c1`, the Potency was inconclusive: 7.08 µM [fluorescent, side channel, full curve]. With `O=S(=O)(c1ccc2ccccc2c1)N1C=CC(C(F)(F)F)=NCC1` the Potency was inconclusive: 70.8 µM [inhibitor, single point]. For `Cc1cc(/C=C2\SC(=S)N(Cc3ccco3)C2=O)c(C)n1-c1ccccc1`, the Potency was inconclusive: 39.8 µM [fluorescent, side channel, partial curve]. In the case of `COc1cc(COc2ccc3c(C)c(Cc4ccccc4)c(=O)oc3c2)cc(OC)c1OC`, the Potency is reported as “inactive”. In the case of `Cc1cccnc1Nc1nc(-c2ccccn2)cs1`, the Potency is reported as inconclusive: 22.4 µM [quencher, side channel, partial curve]. `COc1ccc(CCCC(=O)NC(C)c2ccccc2)cc1` (centres undefined) was tested, and the Potency was inconclusive: 10 µM [inhibitor, single point]. For `CCCCOCCCNc1ncnc2c1[nH]c1ccccc12`, the Potency was “inactive”. In the case of `OCc1cn(-c2ccccc2)nc1-c1ccc2c(c1)OCCO2`, the Potency is reported as “inactive”. With `N#C/C(=C\c1ccc(N2CCCCC2)o1)C(N)=O` the Potency was inconclusive: 31.6 µM [fluorescent, side channel, single point]. In the case of `CCc1ccc2[nH]c(=O)c(CN(CCCO)C(=O)NCc3ccccc3)cc2c1`, the Potency is reported as inconclusive: 70.8 µM [quencher, side channel, single point]. For `CC1(C)Cc2c(cnn2-c2ccc(F)cc2)C(NC(=O)C2=NNC(=O)CC2)C1` (centres undefined), the Potency was inconclusive: 89.1 µM [fluorescent, side channel, single point]. With `C=CCN1C(=O)/C(=C2/Sc3ccccc3N2CC)SC1=S` the Potency was inconclusive: 35.5 µM [fluorescent, side channel, single point]. For `O=C(c1ccco1)C(O)c1ccco1` (centres undefined), the Potency was inconclusive: 25.1 µM [fluorescent, side channel, partial curve]. For `Cn1nc(-c2ccccc2)c(N2CCCCC2)cc1=O`, the Potency was “inactive”. For `COc1ccccc1-c1cn(-c2ccccc2)c(=S)[nH]1`, the Potency was inconclusive: 31.6 µM [fluorescent, side channel, partial curve]. With `CCN1CCN(CCNC(=O)c2ccc(/C=C3/Sc4ccccc4N(Cc4cccc(C)c4)C3=O)cc2)CC1` the Potency was inconclusive: 44.7 µM [quencher, single point]. In the case of `CCOc1cc(/C=C2\CN(C)C/C(=C\c3ccc(O)c(OCC)c3)C2=O)ccc1O`, the Potency is reported as inconclusive: 11.2 µM [fluorescent, side channel, single point]. `O=c1[nH]cnc(O)c1C(c1ccc(F)cc1)c1c(O)nc[nH]c1=O` was tested, and the Potency was “inactive”. In the case of `CSCC[C@H](NC(=O)C1CCN(C(=O)[C@H](Cc2ccccc2)NS(=O)(=O)c2ccc(C)cc2)CC1)C(=O)O`, the Potency is reported as inconclusive: 70.8 µM [fluorescent, side channel, single point]. In the case of `O=C(NCc1nnc(SCC(=O)N2CCN(c3ccccc3)CC2)o1)c1c(F)cccc1F`, the Potency is reported as inconclusive: 10 µM [quencher, side channel, single point]. `CCCc1c(C(=O)N/N=C/c2ccncc2)nnn1-c1nonc1N` was tested, and the Potency was inconclusive: 35.5 µM [fluorescent, side channel, partial curve]. For `O=C(O)c1cccc(Cn2c(Cl)c(/C=N/Nc3ccccc3)sc2=O)c1`, the Potency was inconclusive: 56.2 µM [fluorescent, side channel, single point]. For `CC1=C(C#N)C(c2cccnc2)C2=C(N1)c1ccccc1C2=O` (centres undefined), the Potency was inconclusive: 7.08 µM [quencher, side channel, full curve]. For `CC1=Nc2ccccc2N=C(NC(=O)CSc2nnnn2-c2ccccc2)C1c1ccccc1` (centres undefined), the Potency was inconclusive: 112 µM [quencher, side channel, partial curve]. `CCN1CCN(Cc2c(O)ccc3c2O/C(=C\C=C\c2ccccc2)C3=O)CC1` was tested, and the Potency was inconclusive: 25.1 µM [fluorescent, side channel, partial curve]. With `Cc1ccc2nc(-c3ccccc3)cc(C(=O)NCCCn3ccnc3)c2c1` the Potency was “inactive”. For `COCCN(CCOC)C(=O)c1c[nH]c2ccc(S(=O)(=O)N(C)c3ccc(F)cc3)cc2c1=O`, the Potency was inconclusive: 89.1 µM [inhibitor, single point]. With `O=C(O)CCCN1C(=O)/C(=C/C=C/c2ccco2)SC1=S` the Potency was “inactive”. For `O=S(=O)(/C=C/c1ccccc1)N1CCN(c2nc(-c3cccnc3)nc3ccccc23)CC1`, the Potency was inconclusive: 39.8 µM [fluorescent, side channel, partial curve]. In the case of `Cc1cc(C)n(CC(=O)NNC(=O)CCCOc2ccc(Cl)c(C)c2)n1`, the Potency is reported as inconclusive: 12.6 µM [fluorescent, side channel, single point]. With `CCN(CC)c1ccc(CNc2nc3ccccc3n2CCN2CCCCC2)cc1` the Potency was inconclusive: 31.6 µM [fluorescent, side channel, partial curve]. `CCNC(=O)/C(C#N)=C/c1c(N2CCN(c3ccccc3)CC2)nc2c(C)cccn2c1=O` was tested, and the Potency was inconclusive: 63.1 µM [fluorescent, side channel, single point]. For `O=C1CCCN1CC(O)CS(=O)(=O)Cc1ccc(Cl)cc1Cl` (centres undefined), the Potency was inconclusive: 63.1 µM [fluorescent, side channel, single point]. With `CCSc1ncnc2sc3c(c12)CCC3` the Potency was “inactive”. With `CC(=Nc1ccc(Br)cc1)c1sc2ccccc2c1O` the Potency was inconclusive: 28.2 µM [fluorescent, side channel, partial curve]. With `Cc1ccc(S(=O)(=O)N2CCOC2CNC(=O)C(=O)NCCc2c[nH]c3ccccc23)cc1` (centres undefined) the Potency was inconclusive: 63.1 µM [fluorescent, side channel, single point]. In the case of `O=C1CCCN1CN1CCCCC1`, the Potency is reported as inconclusive: 89.1 µM [inhibitor, single point]. With `CCC(CO)[n+]1c(C)cc(/C=C2\Sc3ccccc3N2Cc2ccccc2)cc1C` (centres undefined) the Potency was inconclusive: 31.6 µM [fluorescent, side channel, partial curve]. For `Cn1cc(CCC(=O)NCc2cccc(Cl)c2)c2ccccc21`, the Potency was inconclusive: 89.1 µM [quencher, side channel, single point]. For `CCCN(CCC)CC(=O)N1CC(=O)Nc2ccccc21`, the Potency was inconclusive: 70.8 µM [fluorescent, side channel, single point]. `CCN(CC)c1ccc2c(Cl)c(Br)c(=O)oc2c1` was tested, and the Potency was inconclusive: 6.31 µM [fluorescent, side channel, full curve]. In the case of `CC1=C(C#N)C(=O)N(C2CCS(=O)(=O)C2)C(=O)/C1=C\c1ccc(C)o1` (centres undefined), the Potency is reported as inconclusive: 10 µM [fluorescent, side channel, full curve]. In the case of `CS(=O)(=O)Cc1cccc(C(=O)NN(c2ccccc2)c2ccccc2)c1`, the Potency is reported as “inactive”. In the case of `O=C(Nc1ccc2ccccc2c1)c1onc2c1CCCC2`, the Potency is reported as inconclusive: 20 µM [fluorescent, side channel, partial curve]. With `COCCCNc1nc2ccccc2nc1NS(=O)(=O)c1cccc(Cl)c1` the Potency was inconclusive: 10 µM [fluorescent, side channel, single point]. In the case of `CCCCCCNC(=O)C(C#N)c1nc2ccccc2nc1N1CCOCC1` (centres undefined), the Potency is reported as inconclusive: 44.7 µM [fluorescent, side channel, single point]. With `CCCCn1c(/C=N/Nc2nc3ccccc3[nH]2)nc2ccccc21` the Potency was inconclusive: 35.5 µM [fluorescent, side channel, partial curve]. For `CCCCn1c(C)cc2c(c1=O)C1O[C@](c3ccsc3)(Cc3ccccc31)O2`, the activity change, negative = inhibition was inactive: 3.32% [at 23 µM]. In the case of `O=c1[nH]cccc1-c1nc2ccccc2n1Cc1cccc(Cl)c1`, the Potency is reported as inconclusive: 7.08 µM [fluorescent, side channel, full curve]. In the case of `CC(C)(C)Nc1c(-c2ccc(O)cc2)nc2ccc(Cl)cn12`, the Potency is reported as inconclusive: 39.8 µM [quencher, side channel, single point]. For `COc1ccc(NC(=O)C(=O)NNC(=O)COc2ccc(Cl)cc2)c(OC)c1`, the Potency was inconclusive: 15.8 µM [fluorescent, side channel, single point]. For `Cc1ccc(CS(=O)(=O)CCC(=O)O)cc1`, the Potency was inconclusive: 2.82 µM [fluorescent, side channel, full curve]. For `CCC(=O)N1CCN(c2ccc(NC(=O)c3ccc4ccccc4c3)cc2)CC1`, the Potency was inconclusive: 39.8 µM [fluorescent, side channel, partial curve].
